Assay results published in EP1222194B1, “7-ACYLAMINO-3-HETEROARYLTHIO-3-CEPHEM CARBOXYLIC ACID ANTIBIOTICS AND PRODRUGS THEREOF” (priority 1999, dated 2001).

System: S. aureus ATCC29213
Assay: Human serum binding effect (MIC with and without human serum)
Format: cell-based, Staphylococcus aureus
Conditions: Ratio of MIC value determined with and without human serum added for S. aureus ATCC29213; human serum:MHB 1:1

CN[C@H](CC(C)C)C(=O)N[C@H]1C(=O)N[C@@H](CC(N)=O)C(=O)N[C@H]2C(=O)N[C@H]3C(=O)N[C@H](C(=O)N[C@H](C(=O)O)c4cc(O)cc(O)c4-c4cc3ccc4O)[C@H](O)c3ccc(c(Cl)c3)Oc3cc2cc(c3O[C@@H]2O[C@H](CO)[C@@H](O)[C@H](O)[C@H]2O[C@H]2C[C@](C)(N)[C@H](O)[C@H](C)O2)Oc2ccc(cc2Cl)[C@H]1O [Van, Vancomycin]
Human serum binding effect: 2
